Data taken from publication PMC11533527, “A yeast two-hybrid system to obtain triple-helical ligands from combinatorial random peptide libraries” (The Journal of Biological Chemistry, 2024).
No constants are given. Whether binding was seen depends on the method and setting. Some binding calls cover weakened binding; strength is not graded here. Where a sequence is shown, tags or fusion partners need not be part of it.

The chains behind the UniProt entries cited, without tags or fusion partners. Where a name states a change or a piece, a line headed by the entry shows the natural chain unless it says otherwise.
UniProt P02453: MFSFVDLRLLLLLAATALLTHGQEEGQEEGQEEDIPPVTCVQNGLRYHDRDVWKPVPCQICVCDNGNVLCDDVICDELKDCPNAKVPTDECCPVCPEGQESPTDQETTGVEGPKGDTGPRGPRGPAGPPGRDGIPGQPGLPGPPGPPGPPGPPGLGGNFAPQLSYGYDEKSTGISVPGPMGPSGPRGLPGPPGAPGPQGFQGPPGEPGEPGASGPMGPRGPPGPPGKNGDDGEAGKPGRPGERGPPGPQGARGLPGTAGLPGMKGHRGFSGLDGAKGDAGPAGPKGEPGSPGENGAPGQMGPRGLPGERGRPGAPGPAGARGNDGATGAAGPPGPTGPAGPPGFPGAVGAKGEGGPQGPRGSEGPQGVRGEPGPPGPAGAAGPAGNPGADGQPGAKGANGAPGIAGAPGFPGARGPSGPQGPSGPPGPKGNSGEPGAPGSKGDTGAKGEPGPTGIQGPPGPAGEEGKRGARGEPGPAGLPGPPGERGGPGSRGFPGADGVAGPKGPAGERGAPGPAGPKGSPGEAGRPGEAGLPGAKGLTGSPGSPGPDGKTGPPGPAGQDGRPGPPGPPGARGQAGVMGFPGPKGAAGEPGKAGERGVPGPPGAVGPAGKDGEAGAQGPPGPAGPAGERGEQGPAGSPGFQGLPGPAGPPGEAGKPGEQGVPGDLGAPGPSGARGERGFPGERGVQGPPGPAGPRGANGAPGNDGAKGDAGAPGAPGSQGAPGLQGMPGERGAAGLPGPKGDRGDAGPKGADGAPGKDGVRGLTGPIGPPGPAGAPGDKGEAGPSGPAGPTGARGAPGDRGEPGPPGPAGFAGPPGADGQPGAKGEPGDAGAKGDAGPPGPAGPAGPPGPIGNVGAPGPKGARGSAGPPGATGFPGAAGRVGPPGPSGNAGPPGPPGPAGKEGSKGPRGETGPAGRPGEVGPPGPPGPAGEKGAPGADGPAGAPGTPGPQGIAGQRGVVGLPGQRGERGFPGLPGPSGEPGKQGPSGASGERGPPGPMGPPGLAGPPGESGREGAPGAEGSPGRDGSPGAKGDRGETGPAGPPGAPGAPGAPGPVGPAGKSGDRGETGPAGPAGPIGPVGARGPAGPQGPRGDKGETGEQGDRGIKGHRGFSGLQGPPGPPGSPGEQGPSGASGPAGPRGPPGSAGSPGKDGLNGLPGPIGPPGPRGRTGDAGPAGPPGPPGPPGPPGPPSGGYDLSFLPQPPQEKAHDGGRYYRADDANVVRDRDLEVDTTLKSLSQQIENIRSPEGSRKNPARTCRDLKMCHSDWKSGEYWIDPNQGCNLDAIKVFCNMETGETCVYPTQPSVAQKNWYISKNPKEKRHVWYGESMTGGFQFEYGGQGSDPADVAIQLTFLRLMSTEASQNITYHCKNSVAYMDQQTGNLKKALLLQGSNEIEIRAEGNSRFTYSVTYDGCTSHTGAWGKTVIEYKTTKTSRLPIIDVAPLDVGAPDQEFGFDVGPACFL

Biological target: type I collagen (collagen I, Koken) (UniProt P02453)
Test: ELISA; competitive ELISA: wells coated with 10 μg/ml collagen I; annealed peptides preincubated with 3 nM GST-PEDF for 10 min at room temperature in 20 mM HEPES-Na pH 7.4, 100 mM NaCl, 0.005% Tween 20; 90 min at 4 °C in the wells; HRP-anti-GST detection; both purified

binding: binds
B1: glutathione S-transferase (GST)-PEDF-fusion protein (protein, UniProt P97298 20-417)
chain: QNVPSSSEGSPVPDSTGEPVEEEDPFFKVPVNKLAAAVSNFGYDLYRLRSSASPTGNVLLSPLSVATALSALSLGAEHRTESVIHRALYYDLITNPDIHSTYKELLASVTAPEKNLKSASRIVFERKLRVKSSFVAPLEKSYGTRPRILTGNPRVDLQEINNWVQAQMKGKIARSTREMPSALSILLLGVAYFKGQWVTKFDSRKTTLQDFHLDEDRTVRVPMMSDPKAILRYGLDSDLNCKIAQLPLTGSMSIIFFLPLTVTQNLTMIEESLTSEFIHDIDRELKTIQAVLTVPKLKLSFEGELTKSLQDMKLQSLFESPDFSKITGKPVKLTQVEHRAAFEWNEEGAGSSPSPGLQPVRLTFPLDYHLNQPFLFVLRDTDTGALLFIGRILDPSST
